Values from PubChem BioAssay AID743454 (Peter MacCallum Cancer Centre, 2014).
The whole screen tested about 18,000 reagents; this is an unselected part. Over the whole deposit, 450 (2.5%) got an active call. 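Single biological run; no consistent viability z cut-off exists, so the class columns, not z-scores, define the calls.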 No sequences are given here.

Screen: 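Genes whose loss kills vorinostat-resistant colon cancer cells under vorinostat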 (primary screen)
Cells: human HCT116-VR colon cancer cells, selected for vorinostat resistance
Reagents: siRNA pool against human genes, 40 nM siRNA pool
Time to read-out: vorinostat for 24 h, read-out about 72 h after transfection
Conditions: vorinostat at 2.5 µM final
Measured: 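Two measures, CellTiter-Fluor viability and luminescent caspase 3/7 activity, each as fold change against same-plate mock wells, mean of duplicates, then screen-wide robust z-score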
Direction: viability robust z-score: higher = more viable cells than screen typical; caspase robust z-score: higher = more caspase 3/7 activity than screen typical
Active means: 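Hits are knock-downs in viability class RV1/RV2 or caspase class CA1/CA2, excluding ones that killed cells in the no-drug cell-count arm; hits then retested with single siRNAs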

OR1B1
- viability hit class: no change
- caspase hit class: no change
- viability robust z-score: -2.15
- caspase robust z-score: 3.79
- call: inactive

ZNF134
- viability hit class: no change
- caspase hit class: no change
- viability robust z-score: 0.34
- caspase robust z-score: 1.27
- call: inactive

FBXO32
- viability hit class: no change
- caspase hit class: no change
- viability robust z-score: 0.88
- caspase robust z-score: -0.49
- call: inactive

FGD4
- viability hit class: no change
- caspase hit class: no change
- viability robust z-score: 0.66
- caspase robust z-score: 4.58
- call: inactive

ING1
- viability hit class: no change
- caspase hit class: no change
- viability robust z-score: 0.53
- caspase robust z-score: 3.62
- call: inactive

PSMB3
- viability hit class: no change
- caspase hit class: no change
- viability robust z-score: -3.65
- caspase robust z-score: 1.73
- call: inactive

SEC24A
- viability hit class: no change
- caspase hit class: no change
- viability robust z-score: 0.74
- caspase robust z-score: -1
- call: inactive

TMED9
- viability hit class: no change
- caspase hit class: no change
- viability robust z-score: -1.23
- caspase robust z-score: 1.18
- call: inactive

DMXL1
- viability hit class: no change
- caspase hit class: no change
- viability robust z-score: 0.32
- caspase robust z-score: -0.55
- call: inactive

FOXO1
- viability hit class: no change
- caspase hit class: no change
- viability robust z-score: 1.73
- caspase robust z-score: -0.48
- call: inactive

DDB1
- viability hit class: no change
- caspase hit class: no change
- viability robust z-score: -0.29
- caspase robust z-score: -0.47
- call: inactive

NPIPB15
- viability hit class: no change
- caspase hit class: no change
- viability robust z-score: -1.6
- caspase robust z-score: -0.57
- call: inactive

UBE2J2
- viability hit class: no change
- caspase hit class: no change
- viability robust z-score: 0.24
- caspase robust z-score: 1.98
- call: inactive

PGAM2
- viability hit class: no change
- caspase hit class: no change
- viability robust z-score: 0.74
- caspase robust z-score: 0.74
- call: inactive

PPP2R1A
- viability hit class: no change
- caspase hit class: no change
- viability robust z-score: -1.14
- caspase robust z-score: 1.51
- call: inactive

SPATA31G1
- viability hit class: no change
- caspase hit class: no change
- viability robust z-score: -0.43
- caspase robust z-score: 2.38
- call: inactive

ARSK
- viability hit class: no change
- caspase hit class: no change
- viability robust z-score: 1.21
- caspase robust z-score: 3.19
- call: inactive

FAM3C
- viability hit class: no change
- caspase hit class: CA1 (caspase activation)
- viability robust z-score: 0.13
- caspase robust z-score: 6.65
- call: active

DUOX2
- viability hit class: no change
- caspase hit class: no change
- viability robust z-score: -0.32
- caspase robust z-score: -0.6
- call: inactive

GPR42
- viability hit class: no change
- caspase hit class: no change
- viability robust z-score: -2.64
- caspase robust z-score: 4.75
- call: inactive

SP100
- viability hit class: no change
- caspase hit class: no change
- viability robust z-score: 0.29
- caspase robust z-score: -0.89
- call: inactive
